Several values for one entry are separate records, joined by “and”; a condition that tells them apart may be missing. Equal values may be shown once. The list shows a part of the results. The main result of the screen is listed elsewhere. These columns were measured beside it and carry no call. Most of these compounds were active or inconclusive in the main read-out, so they are no random draw. Words in brackets tell the shape of the fitted curve; partial curves, single points and poor fits give uncertain potencies.

A short description of the assay: Cell signaling CRE-BLA (Fsk stim). Particulars: CHO CRE-bla reporter (cAMP response element driving beta-lactamase), forskolin EC10, beta-lactamase ratio; measured here: 460 nm blue channel. The essentials:
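Modulation of forskolin-driven signalling is measured in CHO cells carrying a CRE-controlled beta-lactamase reporter. Cells are stimulated with EC10 NKH 477 in the presence of titrated compound for 3 h at 37 °C, then loaded with CCF4 for 2 h at room temperature.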
Consider `COc1ccc(CN2CCN(c3ccccc3F)CC2)c(OC)c1`, for which the concentration at half-maximal activity (AC50) is 0.00398 µM [falling, full curve, poor fit]. As to `CCC(=O)c1c(O)n(C2CCCCCC2)c(=O)[nH]c1=O`, the AC50 is 25.1 µM [falling, single point]. The value for `CCOC(=O)c1ncn2c1[C@H]1CCCN1C(=O)c1cc(OC)ccc1-2` was 15.8 µM [rising, partial curve] and 10 µM [rising, partial curve]; that for `COc1ccc2c(c1OC)C(=O)OC2c1c(O)n(Cc2ccc(F)cc2)c(=O)[nH]c1=O` (centres undefined) was 3.16 µM [falling, partial curve]; that for `COC(=O)CN1CN(c2ccccc2)C2(CCN(Cc3ccc4ccccc4c3)CC2)C1=O` was 31.6 µM [falling, single point]. The value for `CC(C)C[C@H]1C(=O)N2CCC[C@@H]2[C@]2(O)O[C@](NC(=O)[C@H]3C=C4c5cccc6[nH]cc(c56)C[C@H]4N(C)C3)(C(C)C)C(=O)N12` was 3.98 µM [rising, full curve]. Then `Cn1c(C(=O)N2CCC3(CC2)OCCO3)cc2c(=O)n(C)c3ccccc3c21`, with 15.8 µM [rising, single point]; and `COc1ccc(C[C@H]2NC[C@H](O)[C@@H]2OC(C)=O)cc1`, with 5.01 µM [falling, partial curve, poor fit]; and `COc1ccc(C(=O)c2c(C)n(CCN3CCOCC3)c3cc(I)ccc23)cc1`, with 31.6 µM [falling, partial curve].

As to `CCOC(=O)C1C(=O)N(C)C2(C)CC1c1cc(OC)ccc1O2` (centres undefined), the AC50 was 0.0316 µM [falling, full curve, poor fit]. Then `O=c1[nH]c(=O)n(Cc2ccc(F)cc2)c(O)c1C=NCCN1CCCCC1`, with 12.6 µM [falling, partial curve]. Regarding `Cc1ccc(S(=O)(=O)N2CN3CCN(C3)C2)cc1`, the concentration at half-maximal activity (AC50) was 0.501 µM [falling, single point].

Regarding `O=C1C2CCN(CC2)C1Cc1ccc(OCCOc2ccccc2)cc1` (centres undefined), the AC50 was 3.16 µM [rising, single point]. The value for `CCOC(=O)c1c(C)n(Cc2ccco2)c2ccc(OC)cc12` was 12.6 µM [rising, partial curve]; that for `Cc1c2ccncc2c(C)c2c1[nH]c1ccccc12` was 12.6 µM [rising, partial curve] and 5.01 µM [rising, partial curve]; that for `CCN1CCN(c2ncnc3ccc(Br)cc23)CC1` was 12.6 µM [falling, partial curve].

For `Fc1ccc2c(c1)nnn2C1CCN(Cc2nnnn2C2CCCCC2)CC1`, the AC50 is 3.98 µM [falling, single point]. Then `C[C@]12CC[C@H](O)C[C@@H]1CC[C@H]1[C@H]2CC[C@]2(C)[C@H](C(=O)CO)CC[C@@H]12`, with 12.6 µM [rising, partial curve]; and `C=CCn1c(O)c(C(C)=Nc2ccc(C(=O)OCC)cc2)c(=O)[nH]c1=O`, with 5.01 µM [falling, single point].

For `O=C(Cc1ccccc1)N1CCN(C/C=C/c2ccccc2)CC1`, the AC50 was 5.01 µM [falling, single point].

Take `CCCCc1ccc2[nH]cc(CCN)c2c1`: the AC50 was 0.631 µM [falling, partial curve]. The value for `CCCCn1c(=O)c(C(=O)Nc2ccccc2S(N)(=O)=O)c(O)c2ccccc21` was 12.6 µM [falling, partial curve]; that for `COc1cccc(-c2cc(C(F)(F)F)n3nc(C(=O)N4CCC5(CC4)OCCO5)cc3n2)c1` was 15.8 µM [rising, partial curve]; that for `ClC1=C(Cl)C2(Cl)C3C4C=CC(C4)C3C1(Cl)C2(Cl)Cl` (centres undefined) was 1.58 µM [rising, full curve].

`C[C@@H](CO)NC(=O)[C@H]1C=C2c3cccc4[nH]cc(c34)C[C@H]2N(C)C1`: the AC50 is 12.6 µM [falling, partial curve, poor fit]. The value for `O=S(=O)(O)/C(=C\c1ccccc1)c1ccccc1` (tested in a mixture with another compound) was 5.01 µM [rising, single point]; that for `CCC(=NCc1ccco1)c1c(O)n(Cc2ccccc2)c(=O)[nH]c1=O` was 0.158 µM [rising, partial curve, poor fit]. With `CC1(C)CSC(Nc2ccc(F)c(Cl)c2)=N1`, the AC50 is 3.98 µM [rising, single point]. Then `O=C(O)C1(c2ccc(Cl)cc2)CCC1`, with 5.01 µM [falling, single point].

Turning to `CCCCCn1c(=O)c(C(=O)Nc2ccncc2)c(O)c2ccccc21`, the AC50 is 2 µM [falling, full curve]. As for `CCC[C@@H]1CC2=CC(=O)CC[C@]2(C)[C@@H]2CC[C@@]3(C)[C@H](CC[C@]3(O)CCC(=O)O)[C@H]12`, the concentration at half-maximal activity (AC50) was 12.6 µM [rising, partial curve]. Turning to `NCCc1c[nH]c2ccccc12`, the AC50 was 1 µM [falling, full curve]. Then `Cc1cccc(C)c1NC1=NCCCS1`, with 3.98 µM [falling, partial curve]; and `CC(N=Cc1c(O)[nH]c(=O)[nH]c1=O)c1ccccc1` (centres undefined), with 1.26 µM [falling, full curve]; and `O=S1(=O)CC2(N3CCOCC3)CCCCCCC21` (centres undefined), with 0.631 µM [falling, partial curve]. For the compound `COCCOC(=O)c1c(N)n(Cc2ccc(OC)cc2)c2nc3ccccc3nc12`, the AC50 was 10 µM [rising, partial curve]. Then `CC(=O)C1=C(O)[C@@H]2[C@@H]3c4c[nH]c5cccc(c45)C[C@@H]3C(C)(C)N2C1=O`, with 3.16 µM [rising, partial curve]; and `CN1CCC(N(C)c2nc(-c3ccccc3)nc3ccccc23)CC1`, with 10 µM [rising, single point]. The value for `O=C(C1CC(=O)N(C2CCCCC2)C1)N1CCC2(CC1)OCCO2` (centres undefined) was 15.8 µM [rising, single point]; that for `CCOP(=O)(C#CC(C)(C)C)C(C)(O)c1ccccc1` (centres undefined) was 2.51 µM [falling, single point]; that for `C=CCn1c(O)c(C=Nc2ccc(OC)cc2C)c(=O)[nH]c1=O` was 2.51 µM [rising, partial curve]. The value for `NC(=NCCc1ccc(I)cc1)SCCCc1cnc[nH]1` was 31.6 µM [falling, single point]; that for `COc1cc2c(cc1OC)[C@@]13CCN4CC5=CCO[C@H](CC(=O)O)[C@@H]([C@H]1N2)[C@H]5C[C@H]43` was 1 µM [rising, single point]; that for `COc1ccc(C[C@@H]2C(=O)N[C@H](C)C(=O)N(C)[C@@H]3C(=O)N(C)[C@@H](Cc4ccc(O)c(c4)Oc4ccc(cc4)[C@H]3O)C(=O)N[C@@H](C)C(=O)N[C@H](C)C(=O)N2C)cc1` was 5.01 µM [falling, single point]. Take `CCC(=NCc1ccco1)c1c(O)n(-c2ccccc2)c(=O)[nH]c1=O`: the AC50 is 10 µM [rising, single point]. Then `CCN1c2nc3ccccn3c(=O)c2CC2(C(=O)N(C)C(=O)N(C)C2=O)C1C` (centres undefined), with 3.98 µM [falling, partial curve]. For `O=C(c1cc2nc(-c3ccccc3)cc(-c3ccccc3)n2n1)N1CCC2(CC1)OCCO2`, the AC50 is 2 µM [rising, full curve]. On to `NCCc1c[nH]c2ccc(O)cc12`, for which the AC50 is 25.1 µM [falling, partial curve, poor fit]. The value for `CCN1CCN(Cc2ccc(C)cc2C)CC1` was 3.98 µM [falling, single point]; that for `Cc1nc2cnc(N3CCNCC3)nc2n(C)c1=O` was 12.6 µM [rising, partial curve, poor fit]; that for `Oc1c(Cl)c(Cl)c(Cl)c(Cl)c1Cl` was 25.1 µM [falling, partial curve, poor fit]. Then `CC(=NCCC1=CCCCC1)c1c(O)[nH]c(=O)[nH]c1=O`, with 20 µM [rising, single point]; and `COc1ccc(OC)c(-n2c(O)c(C=NCc3ccc4c(c3)OCO4)c(=O)[nH]c2=O)c1`, with 10 µM [rising, single point].

As to `COc1ccc2c(c1)[nH]c1c(C)nccc12`, the AC50 is 6.31 µM [falling, partial curve]. For `Cc1nc2nc(C)c(CCC(=O)N3CCC4(CC3)OCCO4)c(C)n2n1`, the AC50 is 0.00398 µM [falling, full curve]. `CCCCn1c(=O)c(C(=O)NCc2ccncc2)c(O)c2ccccc21`: the AC50 was 2.51 µM [rising, partial curve]. The value for `CCCN1CCc2cc(O)cc3c2[C@H]1Cc1ccc(O)c(O)c1-3` was 12.6 µM [falling, single point]; that for `CCCN(CCC)[C@@H]1CCc2cccc(O)c2C1` was 10 µM [rising, partial curve]; that for `COc1ccc(OC)c(N2C(=O)NC(=O)C3(Cc4cc(C)ccc4N(C)C3)C2=O)c1` (centres undefined) was 3.98 µM [falling, single point]. Then `COc1ccc(S(=O)(=O)NC(CC(=O)N2CCC3(CC2)OCCO3)c2ccco2)cc1` (centres undefined), with 0.794 µM [falling, partial curve]. Then `Clc1ccc([C@@H]2C[C@H]3CC[C@@H]2N3)cn1`, with 31.6 µM [rising, partial curve, poor fit]; and `c1cc(C2N3CCCN2CC3)ccn1` (centres undefined), with 1 µM [rising, single point]; and `CN1C2CCC1CC(OC(=O)CCN1CCCC1)C2` (centres undefined), with 31.6 µM [falling, single point]. `CC(=NCc1cccnc1)c1c(O)n(C2CCCCC2)c(=O)[nH]c1=O`: the AC50 is 3.16 µM [falling, single point].

The AC50 is the concentration at which the activity in the assay is half-maximal.

The record behind these values is PubChem BioAssay AID662 (National Center for Advancing Translational Sciences (NCATS), 2007).
